# From PubChem BioAssay AID256 (DTP/NCI, 2004)
# The list does not hold the whole screen: it is rich in T/C values a quarter to a half above the control, in often repeated tests (any T/C) and in doses without a T/C. Further doses and runs are listed elsewhere. T/C is the treated group as % of the vehicle group. Some doses have a count of surviving animals in place of a T/C: the source holds a T/C of zero for them, seemingly a mark for toxic or unscored doses. Some survivor counts are full or nearly so, which does not show that the dose was tolerated: the source hardly ever lists a survival T/C far under the control, and the zero likely stands for such cases as well. Counts of survivors are from the toxicity check (mostly the fifth day) where no day follows; animals may have died later. Schedules are NCI's codes, taken here to give the interval after Q, in days (D) or hours (H), and the number of doses after X. Some entries were tested several times; their values stand side by side, smallest first. Counts like (3×) give the number of equal values in this list. For survival time, the PubChem record calls one and a half times the control and up active, and a quarter to a half above the control has no call in these data; cut-offs in other NCI protocols can differ. Some T/C values carry the count of animals alive at the toxicity check (mostly the fifth day); where none is given, no animal had died by that day. Some schedule codes hold Z or #, which are not explained here.
# Tested on: CD2F1 mice, L1210 leukemia ip, survival T/C
# Assay: NCI In Vivo Anticancer Drug Screen. Data for tumor model L1210 Leukemia (intraperitoneal) in CD2F1 (CDF1) mice
# Conditions: T/C endpoint: mean survival time, higher T/C = longer survival
# Summary of the method: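 Compound-dosed mice with transplantable tumor versus matched vehicle controls; endpoint ratio T/C reported.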
structure (smiles),measurement,setting,value
S=c1nc[nH]c2nc[nH]c12,T/C,"dose: 50.0 mg/kg/injection, schedule: Q04DX003 (ip), vehicle: alkali diluted with saline","119, 120, 121, 122 % of control"
same,T/C,"dose: 50.0 mg/kg/injection, schedule: Q04DX003 (ip), vehicle: alkali diluted with water",146 % of control
same,T/C,"dose: 60.0 mg/kg/injection, schedule: Q04DX003 (ip), vehicle: saline",138 % of control
same,T/C,"dose: 60.0 mg/kg/injection, schedule: Q## X002 (ip), vehicle: saline",135 % of control
same,T/C,"dose: 80.0 mg/kg/injection, schedule: Q01DX001 (ip), vehicle: alkali diluted with water",137 % of control
same,T/C,"dose: 80.0 mg/kg/injection, schedule: Q01DX005 (ip), vehicle: alkali diluted with saline, evaluated on day 30","130, 150, 156, 165, 172 % of control"
same,T/C,"dose: 80.0 mg/kg/injection, schedule: Q01DX005 (ip), vehicle: alkali diluted with saline, evaluated on day 45",160 % of control
same,T/C,"dose: 80.0 mg/kg/injection, schedule: Q01DX005 (ip), vehicle: alkali diluted with water, evaluated on day 30, list 1 of 2","107, 125, 127, 128 (2×), 130, 134, 136, 136 [5 of 6 alive], 139, 140, 141, 144, 145 (3×), 148 (2×), 149, 150, 151, 152, 153 (3×), 155 (2×), 156, 160, 162, 163, 166, 170, 172 [5 of 6 alive], 175, 177, 181 [5 of 6 alive], 183, 187, 225 % of control"
same,T/C,"dose: 80.0 mg/kg/injection, schedule: Q01DX005 (ip), vehicle: alkali diluted with water, evaluated on day 30, list 2 of 2","97, 110, 121, 125, 128 (2×), 129, 134 (2×), 136, 139 (2×), 140, 142, 144, 145 (2×), 147, 148 (2×), 149, 150, 151, 152, 153 (2×), 154, 155, 156, 158, 162 (2×), 163, 167, 170, 172, 176, 180, 181, 185, 197 % of control"
same,T/C,"dose: 80.0 mg/kg/injection, schedule: Q01DX005 (ip), vehicle: alkali diluted with water, evaluated on day 45",136 % of control
same,T/C,"dose: 80.0 mg/kg/injection, schedule: Q01DX005 (ip), vehicle: other, evaluated on day 30, list 1 of 2","122, 125, 130, 135, 138, 141 (3×), 142, 144 (2×), 146, 147, 150, 151, 151 [5 of 6 alive], 152, 153, 154, 155, 156, 157 (3×), 159, 160 (2×), 162, 166, 167, 168, 170, 173, 178 % of control"
same,T/C,"dose: 80.0 mg/kg/injection, schedule: Q01DX005 (ip), vehicle: other, evaluated on day 30, list 2 of 2","120, 125, 129, 131, 137, 139, 141 (3×), 143, 144, 145, 146, 147, 151 (2×), 152, 153 (2×), 154, 156 (2×), 157 (2×), 159 (2×), 160, 162 (2×), 167, 168, 170, 171, 174, 182 % of control"
same,T/C,"dose: 80.0 mg/kg/injection, schedule: Q01DX005 (ip), vehicle: other, evaluated on day 35",139 % of control
same,T/C,"dose: 80.0 mg/kg/injection, schedule: Q01DX005 (ip), vehicle: other, evaluated on day 45",186 % of control
same,T/C,"dose: 80.0 mg/kg/injection, schedule: Q01DX005 (ip), vehicle: sodium bicarbonate",126 % of control
same,T/C,"dose: 80.0 mg/kg/injection, schedule: Q01DX009 (ip), vehicle: other",131 % of control
same,T/C,"dose: 80.0 mg/kg/injection, schedule: Q03DX003 (ip), vehicle: saline",131 % of control
same,T/C,"dose: 80.0 mg/kg/injection, schedule: Q04DX003 (ip), vehicle: saline",132 % of control
same,T/C,"dose: 90.0 mg/kg/injection, schedule: Q04DX003 (ip), vehicle: alkali diluted with saline",135 % of control
same,T/C,"dose: 90.0 mg/kg/injection, schedule: Q04DX003 (ip), vehicle: saline",143 % of control
same,T/C,"dose: 90.0 mg/kg/injection, schedule: Q## X009 (ip), vehicle: saline",127 % of control
same,T/C,"dose: 100.0 mg/kg/injection, schedule: Q04DX003 (ip), vehicle: alkali diluted with saline","136 (2×), 145, 150 % of control"
same,T/C,"dose: 100.0 mg/kg/injection, schedule: Q04DX003 (ip), vehicle: alkali diluted with water",132 and 143 % of control
same,T/C,"dose: 160.0 mg/kg/injection, schedule: Q01DX001 (ip), vehicle: alkali diluted with water",125 % of control
same,T/C,"dose: 160.0 mg/kg/injection, schedule: Q01DX005 (ip), vehicle: alkali diluted with saline, evaluated on day 30","122, 134, 142, 145, 150 % of control"
same,T/C,"dose: 160.0 mg/kg/injection, schedule: Q01DX005 (ip), vehicle: alkali diluted with saline, evaluated on day 45",151 % of control
same,T/C,"dose: 160.0 mg/kg/injection, schedule: Q01DX005 (ip), vehicle: alkali diluted with water, evaluated on day 30, list 1 of 2","86 (2×), 87, 90, 90 [5 of 6 alive], 93, 94, 97 [5 of 6 alive], 101, 103, 106, 108 [5 of 6 alive], 110 [5 of 6 alive], 120, 125 (2×), 127, 135, 137, 139, 142, 146, 148, 153, 154, 156, 162, 167, 175 [5 of 6 alive], 182, 204 % of control"
same,T/C,"dose: 160.0 mg/kg/injection, schedule: Q01DX005 (ip), vehicle: alkali diluted with water, evaluated on day 30, list 2 of 2","86, 87, 90 (2×), 91, 94 [5 of 6 alive], 97 [4 of 6 alive], 101 (2×), 104, 107, 109, 117, 124, 125, 126, 130, 137 [5 of 6 alive], 138, 141, 144, 147, 151 [4 of 6 alive], 153, 155, 161, 166, 173 [5 of 6 alive], 181, 195, 227 % of control [5 of 6 alive]"
same,T/C,"dose: 160.0 mg/kg/injection, schedule: Q01DX005 (ip), vehicle: alkali diluted with water, evaluated on day 45",172 % of control
same,survivor count,"dose: 160.0 mg/kg/injection, schedule: Q01DX005 (ip), vehicle: alkali diluted with water","0 of 6, 1 of 6, 1 of 3, 2 of 6, 3 of 6, 5 of 6 (2×), 6 of 6 (2×)"
same,T/C,"dose: 160.0 mg/kg/injection, schedule: Q01DX005 (ip), vehicle: other, evaluated on day 30","86 [4 of 6 alive], 88 (2×), 90, 92, 93 [2 of 3 alive], 94, 94 [4 of 6 alive], 95, 98, 100, 100 [5 of 6 alive], 104 [5 of 6 alive], 106 (2×), 107 (2×), 107 [4 of 6 alive], 107 [5 of 6 alive] (2×), 108, 110, 117, 117 [5 of 6 alive], 122 [2 of 3 alive], 123, 125, 125 [4 of 6 alive], 127, 127 [5 of 6 alive], 128, 129, 129 [5 of 6 alive], 131 (2×), 135, 137 [4 of 6 alive], 138 [5 of 6 alive], 139 (2×), 140, 143, 143 [5 of 6 alive], 144 (2×), 145 [5 of 6 alive], 155, 159, 166, 176, 186 % of control"
same,T/C,"dose: 160.0 mg/kg/injection, schedule: Q01DX005 (ip), vehicle: other, evaluated on day 35",118 % of control
same,survivor count,"dose: 160.0 mg/kg/injection, schedule: Q01DX005 (ip), vehicle: other","0 of 6, 2 of 6, 3 of 6, 2 of 3, 4 of 6, 5 of 6, 3 of 3, 6 of 6 (2×)"
same,T/C,"dose: 160.0 mg/kg/injection, schedule: Q01DX005 (ip), vehicle: saline",145 % of control
same,T/C,"dose: 160.0 mg/kg/injection, schedule: Q01DX005 (ip), vehicle: sodium bicarbonate",149 % of control
